Tested on: ATP synthase yeast mutants MR14 (NARP T8993G) and MC6 (fmc1Δ)
Assay: Filter growth-halo test: restoration of respiratory growth of mutant yeasts on nonfermentable medium
Assay type: cell-based
Design: key: +: the size and the density of said halo allow defining a qualitative value for activity; ++: the size and the density of said halo allow defining a qualitative value for activity; +++: the size and the density of said halo allow defining a qualitative value for activity
Details: 2.5 μl/filter; compounds (Ia) 10 mg/ml, compounds A, B, C, D 5 mg/ml in DMSO; YPG medium; 35° C. MR14 or 36° C. MC6
Source text: The ATP6 yeast mutants grow very slowly from a nonfermentable carbon source due to a dysfunction of the ATP synthase. These yeast mutants are therefore used to identify molecules capable of correcting the effects of the mutation by restoring either ATP synthase function, or ATP production by the mitochondria allowing the yeasts to grow on nonfermentable medium.
Mutant strains used in this experiment are: • MC6 (fmc1Δ) (Lefebvre-Legendre L. et al., J. Biol. Chem., 2001, March 2, 276 (9): 6789-96)
Genotype: MC6: Mat α, ade2, leu2, ura3, trp1, his3, fmc1::HIS3 • MR14 (NARP T8993G) which may be obtained according to International PCT Application WO 2007/125225.
The principle of the activity test is the following:
Step 1: the mutant yeast is cultured in medium containing glucose (YPAD medium). […]
In the morning, the optical density (OD) of the culture is measured; the culture is diluted in liquid YPAD medium (50 or 100 μl in 4 ml of medium if the broth is saturated).
After 4-5 h, OD of the culture is measured; the culture is diluted in YPG medium until the OD is 0.2. […]
Activity of the compounds is detected when mutant yeasts grow around the filters forming a growth halo; the size and the density of said halo allow defining a qualitative value for activity. […]

For `CC(C)(C)CC(C)(C)c1ccc(OCCOCC[N+](C)(C)Cc2ccccc2)cc1` [B- Benzethonium, Benzethonium chloride], the “activity (growth halo around the filter)” value was “++”.

Source: US20120329834A1, “COMPOUNDS FOR THE TREATMENT OF MITOCHONDRIAL DISEASES” (CENTRE NATIONAL DE LA RECHERCHE SCIENTIFIQUE, priority 2009, published 2012)
